Results reported in PubChem BioAssay AID2517 (National Center for Advancing Translational Sciences (NCATS), 2010).
Values joined by “and” are separate entries in the source; they are usually repeats but may differ in a detail not shown here. Equal values may be shown once. About 1,200 (0.34%) of roughly 350,000 compounds were called active. Inconclusive results, whose numbers are uncertain, are shown with a selection of clear calls. Calls come from the whole dose curve; as a rule, active = well fitted inhibition curve with a large enough effect; inconclusive = small, poorly fitted or top-dose-only effect; inactive = no such curve, though single readings can be large or run the other way. Potencies of inconclusive entries are doubtful fits and often do not repeat.

Sequences of proteins named here, by UniProt entry; tags and fusion partners are left off.
UniProt P27695, whole entry, looked up: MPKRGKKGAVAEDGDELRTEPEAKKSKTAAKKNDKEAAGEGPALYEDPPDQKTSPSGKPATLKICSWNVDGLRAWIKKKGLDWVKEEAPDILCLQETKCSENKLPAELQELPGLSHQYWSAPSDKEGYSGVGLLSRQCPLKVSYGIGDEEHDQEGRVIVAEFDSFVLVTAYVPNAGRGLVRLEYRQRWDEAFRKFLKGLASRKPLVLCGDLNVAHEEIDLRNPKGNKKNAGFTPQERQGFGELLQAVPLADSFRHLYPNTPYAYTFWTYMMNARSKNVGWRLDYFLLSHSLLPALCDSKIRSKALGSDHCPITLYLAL

Molecular target: DNA repair nuclease/redox regulator APEX1 (Homo sapiens) (UniProt P27695)
Test: qHTS Assay for Inhibitors of the Human Apurinic/apyrimidinic Endonuclease 1 (APE1); note: nearly all actives have a fitted effect of over 55% in size;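 for activity change, negative = inhibition: plate controls were vehicle for no effect and reference inhibitor for full effect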
Conditions: recombinant APE1, TAMRA/BHQ-2 abasic DNA cleavage fluorescence; activity change, negative = inhibition: at 65.8 µM (top of the series)
How it was run: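 Readout is kinetic fluorescence (ex 525, em 598 nm) from cleavage of 50 nM TAMRA/BHQ-2 THF abasic duplex by 0.75 nM APE1, compound added 15 min beforehand at RT.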
Potency is the fitted concentration of half-maximal effect.

**Q.** How did the Potency turn out when `CCNC(=O)CC1C(=O)N(c2ccc(C)cc2)C(=O)N1CCc1ccc(OC)c(OC)c1` (centres undefined) was run?
**A.** Its Potency is inconclusive: 1.12 µM [inhibitor, full curve, poor fit].

**Q.** With `N#Cc1c2ccc(O)cc2n2ccccc12` as the molecule, how does the Potency read?
**A.** The Potency was inconclusive: 44.7 µM [inhibitor, single point].

**Q.** How did the Potency turn out when `O=C(Nc1cccc(F)c1)c1sc(Cl)nc1-c1ccccc1` was run?
**A.** Its Potency is inconclusive: 0.224 µM [inhibitor, full curve].

**Q.** How did the Potency turn out when `COc1cc2cc3c(N)c(C(=O)NCc4ccco4)sc3nc2cc1OC` was run?
**A.** The Potency was inconclusive: 44.7 µM [inhibitor, single point].

**Q.** How did the “activity change, negative = inhibition” value turn out when `O=C(Oc1c(CN2CCOCC2)cc(Cl)c2cccnc12)c1ccccc1Cl` was run?
**A.** The value was inactive: 5.05%.

**Q.** With `CCOC(=O)C1=C(O)/C(=C/c2cc(OC)c(O)c(OC)c2)SC1=Nc1ccc(OC)cc1` as the molecule, how does the Potency read?
**A.** The Potency was inconclusive: 2.82 µM [inhibitor, full curve].

**Q.** Which Potency does the source give for `Cc1nc2ncnn2c(N2CCN(c3cccc(C(F)(F)F)c3)CC2)c1C` here?
**A.** The Potency was inconclusive: 44.7 µM [inhibitor, single point].

**Q.** For `Cc1ccc2nc(NC(=O)c3ccc(NS(=O)(=O)c4cccs4)cc3)sc2c1`, which Potency is on record?
**A.** Its Potency is inconclusive: 44.7 µM [inhibitor, single point].

**Q.** For `CCc1ccc(/C=C/C(=O)c2cc(Br)ccc(=O)c2O)cc1`, which Potency is on record?
**A.** Its Potency is inconclusive: 31.6 µM [inhibitor, single point].

**Q.** `Cc1nc(SCC(=O)NCc2ccco2)c2c3c(sc2n1)CCCC3` was tested. Which “activity change, negative = inhibition” value did it give?
**A.** The value was inactive: 10.4%.

**Q.** With `Cc1ccc(C)c(C(=O)N(C)CC(=O)Nc2ccccc2C(F)(F)F)c1` as the molecule, how does the Potency read?
**A.** The Potency was inconclusive: 7.94 µM [inhibitor, single point].

**Q.** `CC(C)CC(NC(=O)c1ccccc1)C(=O)N/N=C/c1ccco1` (centres undefined) was tested. Which Potency did it give?
**A.** Its Potency is inconclusive: 31.6 µM [inhibitor, single point].

**Q.** For `O=C(CCCCCn1c(SCc2ccncc2)nc2ccccc2c1=O)NCc1ccco1`, which Potency is on record?
**A.** The Potency was inconclusive: 39.8 µM [inhibitor, single point].

**Q.** With `CCn1c(O)c(/C=C2\C=Nc3ccccc32)sc1=Nc1ccccc1` as the molecule, how does the Potency read?
**A.** The Potency was inconclusive: 44.7 µM [inhibitor, single point].

**Q.** With `CC/C(=N\NC(=O)Nc1ccccc1)c1ccccc1` as the molecule, how does the Potency read?
**A.** Its Potency is inconclusive: 39.8 µM [inhibitor, single point].

**Q.** How did the activity change, negative = inhibition turn out when `CC#CCN1c2ccccc2[C@]23C[C@@H](C(=O)OC)N(S(=O)(=O)c4cccs4)C2=NC(C(=O)OC)=C(C(=O)OC)[C@H]13` was run?
**A.** The activity change, negative = inhibition was inactive: 0.816% [at 12.4 µM].

**Q.** `Nc1ncnc2c1ncn2[C@@H]1O[C@H](COP(=O)(O)OP(=O)(O)OP(=O)(O)OP(=O)(O)OC[C@@H]2O[C@H](n3cnc4c(N)ncnc43)[C@@H](O)[C@H]2O)[C@@H](O)[C@H]1O` was tested. Which Potency did it give?
**A.** Its Potency is inconclusive: 17.8 µM [inhibitor, partial curve].

**Q.** How did the “activity change, negative = inhibition” value turn out when `COc1cccc([C@@H]2Oc3ccc(OC)cc3C[C@H]2OC(=O)Nc2ccc(OC(F)F)cc2)c1` was run?
**A.** The value was inactive: 3.68%.

**Q.** With `CCOC(=O)CSc1nc2ccc(C)cc2cc1C#N` as the molecule, how does the Potency read?
**A.** The Potency was inconclusive: 8.91 µM [inhibitor, single point].

**Q.** Which Potency does the source give for `CCC/C(O)=C1\C(=O)CC(c2ccccc2)CC1=NCCc1c(C)[nH]c2ccccc12` (centres undefined) here?
**A.** Its Potency is inconclusive: 2.24 µM [inhibitor, single point].

**Q.** With `CCOc1ccc(NC(=O)C2CC(=O)N=C(N)S2)cc1` (centres undefined) as the molecule, how does the Potency read?
**A.** The Potency was inconclusive: 0.005 µM [inhibitor, full curve, poor fit].

**Q.** With `COc1cc2cc(CN(Cc3nnnn3Cc3ccccc3)CC3CCCO3)c(=O)[nH]c2cc1OC` (centres undefined) as the molecule, how does the Potency read?
**A.** Its Potency is inconclusive: 25.1 µM [inhibitor, single point].

**Q.** With `CCC(C)Nc1c2c(nc3c(-c4ccccc4)c(C)nn13)CCC2` (centres undefined) as the molecule, how does the Potency read?
**A.** The Potency was inconclusive: 44.7 µM [inhibitor, single point].

**Q.** Which Potency does the source give for `COC(=O)Cc1csc(NC(=O)CSc2nnc3ccccn23)n1` here?
**A.** The Potency was inconclusive: 44.7 µM [inhibitor, single point].

**Q.** With `Cc1ccoc1C(=O)NCc1occc1C(=O)O` as the molecule, how does the Potency read?
**A.** Its Potency is inconclusive: 39.8 µM [inhibitor, single point].

**Q.** Which “activity change, negative = inhibition” value does the source give for `CC1=NN(c2nc(-c3ccc(Cl)cc3)cs2)C(=O)C1` here?
**A.** Its value is inactive: 1.58%.

**Q.** How did the Potency turn out when `O=C(CSCc1c(F)cccc1Cl)NCc1cccnc1` was run?
**A.** The Potency was inconclusive: 8.91 µM [inhibitor, single point].

**Q.** `O=C(NCc1ccco1)c1cc([N+](=O)[O-])ccc1N1CCCCC1` was tested. Which Potency did it give?
**A.** Its Potency is inconclusive: 7.08 µM [inhibitor, single point].

**Q.** With `CC(NS(=O)(=O)c1ccccc1)C(=O)NCc1ccco1` (centres undefined) as the molecule, how does the Potency read?
**A.** Its Potency is inconclusive: 22.4 µM [inhibitor, partial curve].

**Q.** For `C=CCn1c(P(=O)(O)c2ccccc2)nc2ccccc21`, which Potency is on record?
**A.** The Potency was inconclusive: 1 µM [inhibitor, full curve, poor fit].

**Q.** How did the Potency turn out when `O=c1c(OC2OC(CO)C(O)C(O)C2OC2OC(CO)C(O)C(O)C2OC2OC(CO)C(O)C(O)C2O)c(-c2ccc(O)c(O)c2)oc2cc(O)cc(O)c12` (centres undefined) was run?
**A.** The Potency was inconclusive: 25.1 µM [inhibitor, partial curve].

**Q.** How did the Potency turn out when `Oc1ccc(/C=N/N(Cc2ccccc2)c2ccccc2)c(O)c1O` was run?
**A.** The Potency was inconclusive: 28.2 µM [inhibitor, partial curve, poor fit].

**Q.** Which “activity change, negative = inhibition” value does the source give for `CCN1CCS/C1=C\C=C\C1=[N+](CC)CCS1` here?
**A.** The value was inactive: -1.5%.

**Q.** With `Cc1ccc(NC(=O)CN(C)C(=O)c2cc(-c3ccco3)nc3ccccc23)cc1` as the molecule, how does the Potency read?
**A.** Its Potency is active: 5.32 µM.

**Q.** Which Potency does the source give for `Cn1c(=O)c(C(=O)COC(=O)c2cc(-c3ccco3)nc3ccccc23)c(N)n(CC2CC2)c1=O` here?
**A.** The Potency was inconclusive: 31.6 µM [inhibitor, single point] and inconclusive: 20 µM [inhibitor, single point].

**Q.** With `O=C1Nc2ccccc2N2CCCC12` (centres undefined) as the molecule, how does the Potency read?
**A.** Its Potency is inconclusive: 5.01 µM [inhibitor, single point].

**Q.** For `O=C(Cn1cncn1)NCc1cccc2ccccc12`, which Potency is on record?
**A.** Its Potency is inconclusive: 0.631 µM [inhibitor, full curve, poor fit].

**Q.** For `Cc1cc(NC(=O)Nc2ccc(F)cc2F)n(C)n1`, which Potency is on record?
**A.** The Potency was inconclusive: 0.316 µM [inhibitor, full curve, poor fit].

**Q.** `CC1CCCN(C(=O)c2ccc3c(c2)C(=O)N(CCC2=CCCCC2)C3=O)C1` (centres undefined) was tested. Which Potency did it give?
**A.** Its Potency is inconclusive: 10 µM [inhibitor, single point].
